Data from patent publication US7741327B2 (Hoffmann-La Roche Inc., priority 2008, dated 2010).
At least one structure is not confirmed: it was looked up by name or label, or the drawing left a doubt.

Biological target: T1, Recombinant human liver GK1 (GST-GK) (Homo sapiens, UniProt P35557)
T1 construct: made in house; host or cells: E. coli
T1 sequence (P35557 1-466 isoform P35557-2): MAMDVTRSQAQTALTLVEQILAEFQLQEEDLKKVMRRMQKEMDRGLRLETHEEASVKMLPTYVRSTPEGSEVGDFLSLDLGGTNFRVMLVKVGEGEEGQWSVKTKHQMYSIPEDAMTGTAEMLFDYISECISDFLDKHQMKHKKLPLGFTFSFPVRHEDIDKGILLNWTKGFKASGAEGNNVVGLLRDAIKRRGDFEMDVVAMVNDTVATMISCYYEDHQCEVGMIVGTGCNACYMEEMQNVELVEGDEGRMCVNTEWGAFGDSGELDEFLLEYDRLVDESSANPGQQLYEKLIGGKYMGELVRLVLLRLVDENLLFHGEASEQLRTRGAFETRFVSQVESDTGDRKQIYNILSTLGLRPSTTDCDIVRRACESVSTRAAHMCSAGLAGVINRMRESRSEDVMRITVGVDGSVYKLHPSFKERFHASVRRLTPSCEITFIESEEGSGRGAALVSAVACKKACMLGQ
Assay: In vitro glucokinase activity (G6PDH-coupled NADH assay)
Type: biochemical
Details: 30° C., 5 mM D-glucose, 10% DMSO
Protocol: Glucokinase In Vitro Assay Protocol: Glucokinase (GK) was assayed by coupling the production of glucose-6-phosphate to the generation of NADH with glucose-6-phosphate dehydrogenase (G6PDH, 0.75-1 kunits/mg; Boehringer Mannheim, Indianapolis, Ind.) from Leuconostoc mesenteroides as the coupling enzyme (Scheme 2).
Recombinant human liver GK1 was expressed in E. coli as a glutathione S-transferase fusion protein (GST-GK) [Liang et al, 1995] and was purified by chromatography over a glutathione-Sepharose 4B affinity column using the procedure provided by the manufacturer (Amersham Pharmacia Biotech, Piscataway, N.J.).
The assay was conducted at 30° C. in a flat bottom 96-well tissue culture plate from Costar (Cambridge, Mass.) with a final incubation volume of 120 μL. […]
After addition of enzyme, the increase in optical density (OD) at 340 nm was monitored spectrophotometrically to determine the rate of change (OD340 per min). The GK activity (OD340/min) in control wells (10% DMSO minus GK activators) was compared with the activity in wells containing test GK activators, and the concentration of activator that produced a 50% increase in the activity of GK, i.e., the SC1.5, was calculated. […]

With `CCN(CC)C[C@H](O)Cn1ccc(NC(=O)[C@H](CC(C)C)N2CC(Oc3ccccc3Cl)=CC2=O)n1` [Example 173, (S)-2-[4-(2-chloro-phenoxy)-2-oxo-2,5-dihydro-pyrrol-1-yl]-4-methyl-pentanoic acid [1-((S)-3-diethylamino-2-hydroxy-propyl)-1H-pyrazol-3-yl]-amide] the “SC1.5 (concentration of activator that produced a 50% increase in the activity of GK)” value was 0.519 µM.
